Measurements reported in PubChem BioAssay AID686943 (Drosophila RNAi Screening Center, 2013)
Screen: 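Knockdowns that increase or decrease active ERK after insulin receptor stimulation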 (primary screen). Cell system: Drosophila S2R+ haemocyte-like cells expressing YFP-tagged ERK (Rolled). Knock-down reagent: long dsRNA against Drosophila genes. Treatment: insulin stimulation versus unstimulated cells; dose and duration not given. Measured: 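Antibody staining for doubly phosphorylated ERK divided by ERK-YFP signal, as plate z-scores, in insulin-treated and untreated cells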. Reading the numbers: replicate 1, z-score of dpERK with insulin and replicate 2, z-score of dpERK with insulin: higher = more active ERK per ERK-YFP after insulin; replicate 1, z-score of dpERK under basal conditions: higher = more basal active ERK per ERK-YFP.
The screen tested about 23,000 reagents; shown is a random part of those with a known target gene and a result. 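Extra replicates exist only for a retested subset of genes; insulin dose and duration not given; both raised and lowered dpERK matter.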 Reagents against one gene are numbered here. Names joined by + are all predicted targets of the reagent. Not all columns of the deposit are shown. Not given: the amount of reagent, the time to read-out.

| gene | dsRNA no. | replicate 1, z-score of dpERK with insulin | replicate 2, z-score of dpERK with insulin | replicate 1, z-score of dpERK under basal conditions |
| --- | --- | --- | --- | --- |
| mRpL45 | 1 | 0.46 | -0.11 | 0.91 |
| Dnaaf5 | 1 | 0.73 | 0.64 | -1.57 |
| CG14062 | 1 | -0.33 | -0.04 | 0.34 |
| CG8303 | 1 | -0.35 | -0.05 | -0.25 |
| CheA87a | 1 | 0.26 | 0.34 | 0.4 |
| CG15143 | 1 | 0.12 | 0.34 | 0.99 |
| Pvf3 | 1 | 1.96 | 0.26 | -1.55 |
| Pvf3 | 2 | 1.36 | 0.94 | 0.63 |
| Pvf3 | 3 | -0.37 | -0.06 | -0.09 |
| Pvf3 | 4 | 1.45 | 0.5 | 0.59 |

Only “replicate 1, z-score of dpERK with insulin”, for 2 of the entries above:
CG15143 = 0.12
Pvf3 #1 = 1.96

The results go on:
| gene | dsRNA no. | replicate 1, z-score of dpERK with insulin | replicate 2, z-score of dpERK with insulin | replicate 1, z-score of dpERK under basal conditions |
| --- | --- | --- | --- | --- |
| CG32448 | 1 | -0.39 | -0.14 | 3.82 |
| CG11131 | 1 | 1.08 | 1.59 | 3.49 |
| CG11131 | 2 | -0.49 | -0.86 | -0.53 |
| CG3984 | 1 | 0.2 | -0.84 | -0.37 |
| Ir11a | 1 | -0.17 | -0.01 | -1.29 |
| CG7741 | 1 | 0.84 | -0.79 | -0.34 |
| CG42299 + CG42300 | 1 | 0.18 | -0.95 | 0.55 |
| CG42299 + CG42300 | 2 | 0.27 | -1.09 | -0.7 |
| CG43090 | 1 | -0.07 | 0.21 | 0.31 |
| CG31296 | 1 | 0.94 | 0.24 | -0.31 |
| Hsp27 | 1 | 0.57 | 0.42 | -0.85 |
| CG16812 | 1 | 0.53 | 0.63 | 0.86 |
| Bruce | 1 | -0.39 | 0.39 | 0.68 |
